PMC4062936
Results are given in words; binding and its absence hold for the method and conditions named. In cells and extracts the contact can be indirect. Some results given as binding are weak or reduced against the parent protein; the word gives no strength. For some of these results: Sequences can lack the tags named with a protein.

Amino acid sequences for entries named in this document (tags omitted).
UniProt Q96D31: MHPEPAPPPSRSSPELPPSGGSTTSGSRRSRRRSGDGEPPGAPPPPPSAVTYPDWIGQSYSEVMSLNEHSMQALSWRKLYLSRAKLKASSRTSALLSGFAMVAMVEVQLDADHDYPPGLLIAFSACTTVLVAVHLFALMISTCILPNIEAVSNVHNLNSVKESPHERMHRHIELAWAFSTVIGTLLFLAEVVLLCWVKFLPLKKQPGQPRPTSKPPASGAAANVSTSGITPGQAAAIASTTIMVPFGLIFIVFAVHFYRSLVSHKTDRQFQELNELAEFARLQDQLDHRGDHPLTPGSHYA
UniProt P24588: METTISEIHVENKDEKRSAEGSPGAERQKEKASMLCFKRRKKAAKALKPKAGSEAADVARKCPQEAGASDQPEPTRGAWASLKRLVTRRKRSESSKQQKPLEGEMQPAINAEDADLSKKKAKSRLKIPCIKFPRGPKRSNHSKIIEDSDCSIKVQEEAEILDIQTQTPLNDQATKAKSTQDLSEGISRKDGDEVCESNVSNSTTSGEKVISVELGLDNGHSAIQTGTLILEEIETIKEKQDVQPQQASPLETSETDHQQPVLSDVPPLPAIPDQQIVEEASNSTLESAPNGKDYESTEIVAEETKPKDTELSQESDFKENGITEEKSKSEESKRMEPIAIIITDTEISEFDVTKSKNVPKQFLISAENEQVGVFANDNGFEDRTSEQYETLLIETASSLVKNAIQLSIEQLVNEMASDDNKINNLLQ

How the values were obtained:
[1] = target: T1, NFAT1(1-460)-GFP fusion protein (UniProt Q60591); test: co-IP; GFP-tagged protein immunoprecipitated from transfected cells, blot for the partner; lysis buffer with high Ca2+ (2 mM CaCl2)
T1 sequence: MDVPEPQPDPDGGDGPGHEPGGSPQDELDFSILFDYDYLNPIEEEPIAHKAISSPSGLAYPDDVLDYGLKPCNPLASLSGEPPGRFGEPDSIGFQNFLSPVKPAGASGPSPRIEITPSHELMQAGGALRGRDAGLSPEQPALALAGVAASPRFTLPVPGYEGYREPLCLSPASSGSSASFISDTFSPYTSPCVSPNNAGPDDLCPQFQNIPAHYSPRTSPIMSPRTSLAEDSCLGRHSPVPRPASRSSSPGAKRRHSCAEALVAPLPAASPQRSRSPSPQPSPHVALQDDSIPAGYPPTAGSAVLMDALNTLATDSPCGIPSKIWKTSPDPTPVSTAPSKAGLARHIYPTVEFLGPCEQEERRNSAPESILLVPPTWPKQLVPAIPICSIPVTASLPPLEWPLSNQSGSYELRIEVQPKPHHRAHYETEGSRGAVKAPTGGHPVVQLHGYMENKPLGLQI

[2] = target: T1, NFAT1(1-460)-GFP fusion protein; test: as above; remark: listed apart in the source
[3] = target: T1, NFAT1(1-460)-GFP fusion protein; test: co-IP; GFP-tagged protein immunoprecipitated from transfected cells, blot for the partner; lysis buffer with low Ca2+ (4 mM EGTA)
full-length Orai1-GFP = full-length Orai1-GFP (UniProt Q96D31); test: co-IP; 'pull-down' of GFP-tagged Orai1, N1-Orai3 or Orai3, blot for AKAP79 (Figure 4H) or calcineurin (Figure S3D); after store depletion according to the abstract, conditions not told otherwise

binding [2]: binds | binding [3]: binds | binding (full-length Orai1-GFP): binds
Substance: endogenous AKAP79 (from UniProt P24588 1-427)
binding [1]: no binding (condition: high-Ca2+ lysis buffer)
